Measured values published in PubChem BioAssay AID504467 (National Center for Advancing Translational Sciences (NCATS), 2011).
Hit rate of the full screen: of about 330,000 compounds, about 7,700 (2.3%) were called active. Inconclusive means that the source gave no clear call. Such entries were picked first, then a sample of the others. Calls follow the shape of the dose curve; as a rule, active = well fitted inhibition curve with a large enough effect; inconclusive = small, poorly fitted or top-dose-only effect, or effect the other way; inactive = flat fitted curve, though single readings scatter. A potency beside an inconclusive call is a rough fit, not a confirmed value.

Experiment: qHTS screen for small molecules that inhibit ELG1-dependent DNA repair in human embryonic kidney (HEK293T) cells expressing luciferase-tagged ELG1; also: nearly all actives have a fitted effect of over 55% in size
Settings: HEK293T ELG1-luciferase reporter, luminescence, 16 h, DNA damage induced by 5-fluorouridine; activity change, negative = inhibition: at 46.1 µM (top of the series)
Procedure, shortened: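 5-Fluorouridine DNA damage + compound/DMSO, 2,000 cells/well, 16 h, 37 °C/5% CO2. ONE-Glo, 30 min RT, luminescence. Readout = decrease in reporter signal.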
% is scaled to controls: 0 for no effect and ±100 for the full control effect; potency is read from the fitted curve at half-maximal effect.

Row | SMILES | Potency | activity change, negative = inhibition
1 | c1cnc2cc(-c3ccsc3)ncc2c1 | inconclusive: 20.6 µM [activator, partial curve] | –
2 | Cc1onc(-c2ccccc2)c1C(=O)O/N=C(\N)c1ccc([N+](=O)[O-])o1 | – | inactive: 0%
3 | CC(/C=C/c1ccccc1)=N\Nc1nc(-c2ccccc2)cs1 | – | inactive: 0.975%
4 | O=C(NC(NC(=O)c1ccccc1)c1cccc([N+](=O)[O-])c1)c1ccccc1 | inconclusive: 23.1 µM [activator, single point] | –
5 | CCOC(=O)c1cc(S(=O)(=O)N2CCc3ccccc32)cn1C | inconclusive: 29.1 µM [inhibitor, single point] | –
6 | COc1ccccc1OCCNC(=O)CCC(=O)N1CCOCC1 | – | inactive: -4.39%
7 | O=C(/C=C/c1cccs1)Nc1cccnc1 | inconclusive: 13 µM [activator, partial curve] | –
8 | COc1ccc(-c2cc(C(=O)N3CCCCCC3)c3ccccc3n2)c(OC)c1 | inconclusive: 29.1 µM [inhibitor, single point] | –
9 | Cc1ccc(NC(=S)N/N=C/c2cccn2Cc2ccccc2F)cc1 | – | inactive: 2.37%
10 | O=C(NCCOc1ccc(Cl)cc1)c1ccc2ccccc2n1 | inconclusive: 29.1 µM [activator, partial curve, poor fit] | –
11 | CCOc1cc(NC(=S)NCC2CCCO2)c(OCC)cc1NC(=O)C1CC1 (stereo unspecified) | – | inactive: 3.33%
12 | COc1ccc(NC(=O)n2ncc3cc(Cl)ccc32)cc1OC | inconclusive: 23.1 µM [activator, partial curve] | –
13 | CC(C)CCNC(=O)c1ccc(CSCc2cccc(F)c2)o1 | – | inactive: 5.15%
14 | COc1ccc(S(=O)(=O)NCC2CCCO2)cc1NC(=O)c1ccc(Cl)cc1 (stereo unspecified) | inconclusive: 0.058 µM [activator, full curve, poor fit] | –
15 | CC(OC(=O)Cn1[nH]c(=O)c2ccccc2c1=O)C(=O)Nc1cccc(Cl)c1 (stereo unspecified) | – | inactive: 18.9%
16 | Cc1ccc(C)n1-n1c(C)nc2sc(-c3ccccc3)cc2c1=O | inconclusive: 2.31 µM [activator, partial curve, poor fit] | –
17 | Cc1nn(C)c(C)c1/C=N/N=C1\CCC2C3CCc4cc(O)ccc4C3CCC12C (stereo unspecified) | inconclusive: 20.6 µM [inhibitor, single point] | –
18 | COc1ccc(N=C2SC(CC(=O)Nc3cccc(Cl)c3)C(=O)N2Cc2ccco2)cc1 (stereo unspecified) | inconclusive: 25.9 µM [inhibitor, single point] | –
19 | CC(C)NCC(=O)C12CC3CC(CC(C3)C1)C2 | inconclusive: 29.1 µM [inhibitor, single point] | –
20 | O=C(O)C1CC(O)CN1c1nc(Cl)ccc1[N+](=O)[O-] (stereo unspecified) | – | inactive: 7.76%
21 | COC(=O)c1ccc(COC(=O)CNC(=O)c2ccc(-c3ccccc3)cc2)cc1 | inconclusive: 20.6 µM [activator, partial curve] | –
22 | CCn1c(C)nc2cc(S(=O)(=O)C(F)(F)C(F)C(F)(F)F)ccc21 (stereo unspecified) | active: 7.31 µM | –
23 | CCOC(=O)C1CCCCN1Cc1cc(Cl)ccc1O (stereo unspecified) | inconclusive: 16.4 µM [inhibitor, single point] | –
24 | O=C(CCN1C(=O)/C(=C/c2ccccc2Cl)SC1=S)NN1CCOCC1 | – | inactive: 15.2%

Nos. 10 through 24, quoted:
Row | SMILES | Potency | activity change, negative = inhibition
10 | O=C(NCCOc1ccc(Cl)cc1)c1ccc2ccccc2n1 | inconclusive: 29.1 µM [activator, partial curve, poor fit] | –
11 | CCOc1cc(NC(=S)NCC2CCCO2)c(OCC)cc1NC(=O)C1CC1 (stereo unspecified) | – | inactive: 3.33%
12 | COc1ccc(NC(=O)n2ncc3cc(Cl)ccc32)cc1OC | inconclusive: 23.1 µM [activator, partial curve] | –
13 | CC(C)CCNC(=O)c1ccc(CSCc2cccc(F)c2)o1 | – | inactive: 5.15%
14 | COc1ccc(S(=O)(=O)NCC2CCCO2)cc1NC(=O)c1ccc(Cl)cc1 (stereo unspecified) | inconclusive: 0.058 µM [activator, full curve, poor fit] | –
15 | CC(OC(=O)Cn1[nH]c(=O)c2ccccc2c1=O)C(=O)Nc1cccc(Cl)c1 (stereo unspecified) | – | inactive: 18.9%
16 | Cc1ccc(C)n1-n1c(C)nc2sc(-c3ccccc3)cc2c1=O | inconclusive: 2.31 µM [activator, partial curve, poor fit] | –
17 | Cc1nn(C)c(C)c1/C=N/N=C1\CCC2C3CCc4cc(O)ccc4C3CCC12C (stereo unspecified) | inconclusive: 20.6 µM [inhibitor, single point] | –
18 | COc1ccc(N=C2SC(CC(=O)Nc3cccc(Cl)c3)C(=O)N2Cc2ccco2)cc1 (stereo unspecified) | inconclusive: 25.9 µM [inhibitor, single point] | –
19 | CC(C)NCC(=O)C12CC3CC(CC(C3)C1)C2 | inconclusive: 29.1 µM [inhibitor, single point] | –
20 | O=C(O)C1CC(O)CN1c1nc(Cl)ccc1[N+](=O)[O-] (stereo unspecified) | – | inactive: 7.76%
21 | COC(=O)c1ccc(COC(=O)CNC(=O)c2ccc(-c3ccccc3)cc2)cc1 | inconclusive: 20.6 µM [activator, partial curve] | –
22 | CCn1c(C)nc2cc(S(=O)(=O)C(F)(F)C(F)C(F)(F)F)ccc21 (stereo unspecified) | active: 7.31 µM | –
23 | CCOC(=O)C1CCCCN1Cc1cc(Cl)ccc1O (stereo unspecified) | inconclusive: 16.4 µM [inhibitor, single point] | –
24 | O=C(CCN1C(=O)/C(=C/c2ccccc2Cl)SC1=S)NN1CCOCC1 | – | inactive: 15.2%

Next results follow.

Row | SMILES | Potency | activity change, negative = inhibition
25 | O=C(Nc1nc2ccccc2s1)C1CC(=O)N(c2ccccc2)C1 (stereo unspecified) | inconclusive: 29.1 µM [inhibitor, partial curve, poor fit] | –
26 | CC12CCC(C(=O)N(CC(O)CN3CCCCC3)C1=O)C2(C)C (stereo unspecified) | inconclusive: 23.1 µM [activator, single point] | –
27 | Cc1cc(C(=O)COC(=O)c2ccc3c(c2)OCO3)c(C)n1CC1CCCO1 (stereo unspecified) | inconclusive: 2.31 µM [activator, full curve] | –
28 | CCOc1nc(Nc2ccc(F)cc2)nc(N2CCN(c3ccc(OC)cc3)CC2)n1 | inconclusive: 20.6 µM [inhibitor, single point] | –
29 | Nc1c(-c2ccc3c(c2)OCCO3)oc2ccccc2c1=O | inconclusive: 16.4 µM [activator, partial curve] | –
30 | O=C(COc1ccccc1)Nc1nnc(C23CC4CC(CC(C4)C2)C3)s1 | inconclusive: 4.11 µM [activator, partial curve, poor fit] | –
31 | COc1ccccc1OCC(=O)Nc1ccc(-c2nnc(-c3ccco3)o2)cc1 | inconclusive: 16.4 µM [activator, partial curve, poor fit] | –
32 | Cc1ccc(C)c(Nc2c([N+](=O)[O-])cc(C(=O)N3CC(=O)Nc4ccccc43)cc2[N+](=O)[O-])c1 | inconclusive: 25.9 µM [inhibitor, single point] | –
33 | O=S(=O)(NCC1CCN(c2ccc(S(=O)(=O)N3CCOCC3)cc2)CC1)c1ccccc1 | – | inactive: 6.07%
34 | Cc1ccc2cc(C)c(SCC(=O)NCc3ccco3)nc2c1 | – | inactive: 5.34%
35 | Cc1ccccc1OCC(=O)Nc1ccccc1N1CCCCC1 | inconclusive: 29.1 µM [inhibitor, single point] | –
36 | CCOP(=O)(OCC)c1nc(-c2ccc(Cl)cc2Cl)oc1N1CCCCC1 | inconclusive: 23.1 µM [inhibitor, partial curve, poor fit] | –
37 | CSc1ncccc1C(=O)N1CCCC(N2CCN(c3ccccc3F)CC2)C1 (stereo unspecified) | – | inactive: -7.87%
38 | COCCN(C(=O)c1cc(OC)c(OC)c(OC)c1)c1c(N)n(Cc2ccccc2)c(=O)[nH]c1=O | – | inactive: 10.7%
39 | O=C1C(NS(=O)(=O)c2cccs2)=C(N2CCOCC2)C(=O)c2ccccc21 | – | inactive: -5.5%
40 | COc1ccc(/C=C(\C#N)c2nc3ccc(C)cc3[nH]2)cc1Oc1ccc(C(F)(F)F)cc1[N+](=O)[O-] | inconclusive: 29.1 µM [activator, partial curve, poor fit] | –
41 | COc1ccc(C2CC(C(F)(F)F)n3nc(C(=O)O)cc3N2)cc1 (stereo unspecified) | – | inactive: 12.1%
42 | NC(=O)C1CCN(C(=O)NC(=O)c2ccccc2)CC1 | – | inactive: 1.48%
43 | C[C@H]1CCC[C@]2(C)C[C@H]3OC(=O)C(CN4CCCCCC4)[C@H]3C=C12 (stereo partly specified) | inconclusive: 29.1 µM [activator, single point] | –
44 | c1ccn2cc(-c3ccc4c(c3)OCO4)cc2c1 | inconclusive: 23.1 µM [activator, single point] | –
45 | Cc1ccnc(Nc2nc3ccccc3o2)n1 | inconclusive: 2.59 µM [activator, full curve] | –
46 | O=C1CC(c2c[nH]c3ccccc23)C(=O)N1c1ccccc1 (stereo unspecified) | inconclusive: 18.4 µM [activator, single point] | –
47 | OCC[C@H]1C[C@H](O)[C@@H](O)[C@]2(CCc3ccccc3O2)O1 | inconclusive: 7.94 µM [activator, single point] | –
48 | O=C(COc1ccc(Br)cc1)N1CCN(S(=O)(=O)/C=C/c2ccccc2)CC1 | inconclusive: 16.4 µM [inhibitor, partial curve] | –

Row | SMILES | Potency | activity change, negative = inhibition
49 | COc1ccc(OC)c(C2=NOC(C(=O)Nc3cccc(C(C)=O)c3)C2)c1 (stereo unspecified) | inconclusive: 10.3 µM [inhibitor, partial curve] | –
50 | CSc1nsc2nc(=O)c(/C=C3\C(C)=Nc4ccccc43)c(N)n12 | – | inactive: -7.96%
51 | NC(=O)C1CCN(c2ncnc3c(-c4ccccc4)nsc23)CC1 | inconclusive: 8.2 µM [activator, partial curve] | –
52 | COc1ccccc1OCCCn1c(=O)sc2ccccc21 | inconclusive: 14.6 µM [activator, partial curve] | –
53 | O=C(Cc1c(F)cccc1Cl)N1CCCC1 | – | inactive: 2.64%
54 | Cc1ccc2nc(NC(=O)CN3C(=O)NC4(CCCCC4)C3=O)sc2c1 | inconclusive: 20.6 µM [activator, single point] | –
55 | O=C(Nc1ncccc1O)c1ccc(S(=O)(=O)Nc2ccccc2)cc1 | inconclusive: 25.9 µM [activator, single point] | –
56 | O=C(Nc1ncc(Cc2ccccc2Cl)s1)c1ccc(-c2cccc([N+](=O)[O-])c2)o1 | active: 13 µM | –
57 | Cc1cc(Cl)ccc1OC(C)C(=O)Nc1ccc(C(=O)Nc2ccccc2C(=O)O)cc1 (stereo unspecified) | – | inactive: -3.11%
58 | O=C(c1ccc(Br)cc1)N1CCC(C(=O)N2CCN(Cc3ccccc3)CC2)CC1 | – | inactive: -28.2%
59 | CN1CCc2c(sc3nc(SCC(=O)N4CCCCC4)n(-c4ccccc4)c(=O)c23)C1 | – | inactive: -22.8%
60 | Cc1ccnc(OC(C(=O)O)C(OCc2ccccc2)(c2ccc(F)cc2)c2ccc(F)cc2)n1 (stereo unspecified) | – | inactive: 23.4%
61 | Cc1onc(-c2ccccc2)c1C(=O)NCC(O)c1ccccc1 (stereo unspecified) | inconclusive: 6.51 µM [activator, single point] | –
62 | CN(C)n1cccc1/C=C(\C#N)S(=O)(=O)c1ccc(Cl)cc1 | – | inactive: -9.73%
63 | Cc1ccc(NC(=O)Cc2c(C(=O)O)n(C)c3ccccc23)cc1F | inconclusive: 29.1 µM [inhibitor, single point] | –
64 | O=[N+]([O-])c1cccnc1NCCc1c[nH]c2ccccc12 | inconclusive: 16.4 µM [activator, partial curve] | –
65 | COc1cc(NC(=O)N2c3ccccc3Sc3ccccc32)c(C(=O)O)cc1OC | – | inactive: 0.184%
66 | Cc1cc(C)cc(CC(Cc2nc3ccccc3[nH]2)c2nc3ccccc3[nH]2)c1 (stereo unspecified) | inconclusive: 23.1 µM [inhibitor, single point] | –
67 | C=CCSc1n[nH]c(-c2ccc(OCCC)cc2)n1 | inconclusive: 2.59 µM [activator, partial curve] | –
68 | CCOC(=O)c1nnc(-c2ccccc2)nc1NCc1ccccc1 | inconclusive: 35.5 µM [inhibitor, single point] | –
69 | CNc1nc2c(c(=O)[nH]c(=O)n2C)n1CCCc1ccccc1 | inconclusive: 23.1 µM [activator, single point] | –
70 | COc1ccc(CNCc2ccc3c(c2)OCO3)c(OC)c1OC | – | inactive: -9.36%
71 | c1ccc(-c2nc(NCc3cccnc3)c3ccccc3n2)cc1 | inconclusive: 29.1 µM [inhibitor, single point] | –
